These are yes or no findings as the source states them, for the method shown. In cells and extracts the contact can be indirect. Some binding calls cover weakened binding; strength is not graded here.
Experiments:
[1] = target: YY1-Flag (from pCMV-YY1-Flag) (UniProt P25490); assay: co-IP; SH-SY5Y cells transfected with pCMV-Sirt6-Flag and pCMV-YY1-Flag, mock cells as negative controls; cleared lysate (150mM KCl, 0.1% Triton X-100, 25mM Tris pH 7.5, 5% glycerol, 0.2mM EDTA, 1mM DTT) on Anti-Flag Affinity gel 2 hours at 4 C; washes with 150mM and 300mM KCl buffer; eluted with flag peptide; immunoblot
[2] = target: SIRT6-Flag (from pCMV-Sirt6-Flag) (UniProt Q8N6T7); assay: as above

Amino acid sequences for entries named in this document (tags omitted).
UniProt P25490: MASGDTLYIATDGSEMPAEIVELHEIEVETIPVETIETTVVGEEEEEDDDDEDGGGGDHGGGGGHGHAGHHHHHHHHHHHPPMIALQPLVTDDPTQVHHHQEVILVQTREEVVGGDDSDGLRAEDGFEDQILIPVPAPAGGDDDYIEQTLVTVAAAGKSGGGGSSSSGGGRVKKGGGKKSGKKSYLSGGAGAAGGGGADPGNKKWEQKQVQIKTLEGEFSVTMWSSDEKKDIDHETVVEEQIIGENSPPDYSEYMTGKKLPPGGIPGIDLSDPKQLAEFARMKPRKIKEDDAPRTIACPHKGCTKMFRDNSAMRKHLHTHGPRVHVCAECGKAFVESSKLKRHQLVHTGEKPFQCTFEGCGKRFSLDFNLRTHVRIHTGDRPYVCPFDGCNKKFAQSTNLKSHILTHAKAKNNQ
UniProt Q8N6T7: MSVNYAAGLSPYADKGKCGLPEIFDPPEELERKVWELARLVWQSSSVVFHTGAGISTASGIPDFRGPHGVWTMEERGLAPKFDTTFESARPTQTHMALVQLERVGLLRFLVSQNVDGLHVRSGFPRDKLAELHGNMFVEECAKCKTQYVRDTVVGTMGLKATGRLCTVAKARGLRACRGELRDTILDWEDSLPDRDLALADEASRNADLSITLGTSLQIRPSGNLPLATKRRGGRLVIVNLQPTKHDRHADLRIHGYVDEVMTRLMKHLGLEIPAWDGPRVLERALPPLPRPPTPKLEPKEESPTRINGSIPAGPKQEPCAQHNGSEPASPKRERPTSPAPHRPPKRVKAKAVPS

For “SIRT6 (detected with anti-SIRT6 in the Flag eluate of YY1-Flag cells) (from UniProt Q8N6T7 1-355)”, the binding [1] was “binds”.

“YY1 (detected with anti-YY1 in the Flag eluate of SIRT6-Flag cells) (from UniProt P25490 1-414)” was tested, and the binding [2] was “binds”.
